Measurements reported in PubChem BioAssay AID1671190 (National Center for Advancing Translational Sciences (NCATS), 2021).
Out of some 580,000 compounds screened, about 6,100 (1.1%) were called active. The inconclusive results got no clear call from the source; some entries with a clear call stand among them for comparison. Calls come from the whole dose curve; as a rule, active = well fitted inhibition curve with a large enough effect; inconclusive = small, poorly fitted or top-dose-only effect, or another doubt; inactive = no such curve, though single readings can be large or run the other way. Where the call is inconclusive, the potency comes from a doubtful curve fit.

The chains behind the UniProt entries cited, without tags or fusion partners. Where a name states a change or a piece, a line headed by the entry shows the natural chain unless it says otherwise.
UniProt P18054: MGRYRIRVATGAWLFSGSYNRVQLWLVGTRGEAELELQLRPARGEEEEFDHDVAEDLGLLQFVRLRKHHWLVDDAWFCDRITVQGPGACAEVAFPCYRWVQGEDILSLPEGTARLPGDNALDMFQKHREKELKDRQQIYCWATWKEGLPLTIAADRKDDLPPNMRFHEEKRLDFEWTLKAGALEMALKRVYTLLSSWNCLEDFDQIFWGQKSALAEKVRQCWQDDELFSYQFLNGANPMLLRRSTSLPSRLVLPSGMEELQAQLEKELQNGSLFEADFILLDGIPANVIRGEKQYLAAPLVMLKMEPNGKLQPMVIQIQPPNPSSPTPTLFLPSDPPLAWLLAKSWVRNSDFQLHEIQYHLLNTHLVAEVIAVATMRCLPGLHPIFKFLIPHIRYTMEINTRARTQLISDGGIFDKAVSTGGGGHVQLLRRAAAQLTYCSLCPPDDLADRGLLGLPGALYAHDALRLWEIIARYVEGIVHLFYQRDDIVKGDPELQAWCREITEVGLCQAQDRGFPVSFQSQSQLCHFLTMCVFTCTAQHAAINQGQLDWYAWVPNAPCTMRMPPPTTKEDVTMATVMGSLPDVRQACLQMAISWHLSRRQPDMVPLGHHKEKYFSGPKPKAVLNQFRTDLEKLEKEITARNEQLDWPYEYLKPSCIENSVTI

molecular target: Polyunsaturated fatty acid lipoxygenase ALOX12 (Homo sapiens) (UniProt P18054); experiment: Primary qHTS assay for inhibitors of human arachidonate 12S-lipoxygenase (ALOX12): Round 2; settings: purified 12hLO, xylenol orange hydroperoxide absorbance; activity change, negative = inhibition: at 108 µM (top of the series) unless noted
In short: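 Purified human 12hLO (150 nM final) in 25 mM Hepes, 0.01% Triton X-100, pH 7.0 was preincubated 15 min at room temperature with compound. Then 40 uM arachidonic acid was added, 30 min. Hydroperoxide was read by Fe-XO absorbance ratio 573/405 nm.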
% is set by controls: 0 for no effect and ±100 for the full control effect; potency is the fitted concentration of half-maximal effect.

Compound	activity change, negative = inhibition	Potency
Cc1cc(-c2cccnc2)c(C#N)c(SCc2cccc(F)c2)n1	inactive: -4.73%	–
O=C1CCN(C(=O)c2n[nH]c3ccccc23)CCCC(C(=O)NCc2ccccc2)CCN1 (configuration not stated)	–	inconclusive: 10 µM [inhibitor, full curve]
Nn1c(SCC(=O)NCCN2C(=O)CSC2=O)nnc1-c1ccc(OC(F)F)cc1	inactive: 6.24%	–
Cc1ccccc1Oc1nc(-c2ccccn2)nc2ccccc12	–	inconclusive: 112 µM [inhibitor, partial curve, poor fit]
CC1CCN(C(=O)c2ncn(C)c2C(=O)N2CCC(C)CC2)CC1	–	inconclusive: 56.2 µM [inhibitor, partial curve, poor fit]
Cn1nc(C(F)(F)F)c2cc(C(=O)Nc3ccc(F)cc3)sc21	–	inconclusive: 112 µM [inhibitor, single point]
O=S1(=O)CCSC[C@@H](CN2CCCC2)N1	inactive: -6.11%	–
CCOC(=O)CCCCCCN	inactive: 7.86%	–
CCN(CC)c1ccc(/C=N/NC(=O)c2cc3ccccc3[nH]2)cc1	inactive: 10.2%	–
CC1=C(C(=O)N(C)C)CC(CC(=O)NCCN2CCOCC2)C(=O)N1Cc1ccc(F)cc1 (configuration not stated)	–	inconclusive: 31.6 µM [inhibitor, partial curve, poor fit]
CCOC(=O)C(C(=O)c1ccccc1)C1CC(C)NC(=S)N1 (configuration not stated)	–	inconclusive: 50.1 µM [inhibitor, partial curve, poor fit]
CCC1CCCCN1C(=O)CSc1nc(N)c(NC(=O)c2ccco2)c(=O)[nH]1 (configuration not stated)	–	inconclusive: 35.5 µM [inhibitor, partial curve, poor fit]
Cc1nonc1C(=O)N1CCCC(Nc2ccc(C(C)C)cc2)C1 (configuration not stated)	inactive: -0.418%	–
COc1ccc(Cc2c(-c3ccccc3)nc3ccc(Br)cn23)c(C)c1	–	inconclusive: 50.1 µM [inhibitor, partial curve, poor fit]
COCCN(CCOC)C(=O)COC(=O)c1ccc(C#N)cc1	–	inconclusive: 50.1 µM [inhibitor, partial curve, poor fit]
CCC/C(C)=C/c1ccc(CC)cn1	–	inconclusive: 31.6 µM [inhibitor, single point]
Cc1cc2nc(COC(=O)c3cccc(NC(=O)c4ccc(C(C)(C)C)cc4)c3C)cc(=O)n2o1	–	inconclusive: 0.355 µM [inhibitor, full curve, poor fit]
COc1cnc(-c2ccccc2)nc1Oc1ccccc1C	–	inconclusive: 112 µM [inhibitor, single point]
C=CCNCc1ccc(OCC)c(OCC)c1	inactive: 2.02%	–
Cc1cc(Cl)ccc1N(CC(=O)NCCSCc1ccco1)S(C)(=O)=O	–	inconclusive: 100 µM [inhibitor, single point]
CC(C)c1nc2c(c(-c3ccc(Cl)cc3)n1)CCN(C(=O)c1ccccc1F)CC2	inactive: 5.39% [at 6.33 µM]	–

Compound	activity change, negative = inhibition	Potency
CC(C)c1cc(C(=O)NNC(=S)NC2CCCCC2)cs1	–	inconclusive: 44.7 µM [inhibitor, partial curve, poor fit]
Cc1cccc(N(Cc2ccccc2)C(=O)c2ccc(S(C)(=O)=O)cc2)c1	–	inconclusive: 158 µM [inhibitor, single point]
Cc1ccc(N2NC3(CCN(C(N)=O)CC3)NC2=O)cc1	–	inconclusive: 39.8 µM [inhibitor, partial curve, poor fit]
CC(C)(C)c1ccc(OCC(=O)NCC2(N3CCOCC3)CCCCC2)cc1	–	inconclusive: 56.2 µM [inhibitor, partial curve, poor fit]
CC(OC(=O)C1CCC1)C(=O)c1c[nH]c2ccccc12 (configuration not stated)	inactive: 29.3%	–
CC(C)CC(NS(=O)(=O)OCC(Cl)(Cl)Cl)c1ccccc1 (configuration not stated)	–	inconclusive: 50.1 µM [inhibitor, partial curve, poor fit]
CC(C)Oc1cc(F)cc(-c2cc(NCCO)ncn2)c1	inactive: 17.8%	–
COc1ccc(C2C(C#N)=C(N)Oc3c2oc(CO)cc3=O)cc1 (configuration not stated)	inactive: 0%	–
O=c1nc(/C=C/c2cccn2-c2ccc([N+](=O)[O-])cc2)cc(C(F)(F)F)[nH]1	–	inconclusive: 44.7 µM [inhibitor, partial curve, poor fit]
O=C(CSC1=NCCS1)N(Cc1ccc(Cl)cc1)C12CC3CC(CC(C3)C1)C2	inactive: 3.91%	–
C(=N\NC1=NCCCCC1)/c1cn(-c2ccccc2)nc1-c1cccnc1	–	inconclusive: 100 µM [inhibitor, partial curve, poor fit]
COCCNC(=O)CS(=O)Cc1nc(-c2ccc(Cl)cc2)oc1C (configuration not stated)	–	inconclusive: 89.1 µM [inhibitor, single point]
N#Cc1cc(C#N)c(N2CCN(c3ccccn3)CC2)nc1N	inactive: 15.6%	–
CCc1nc2ccc(C(=O)N3CCN(C(=O)c4ccco4)CC3)cn2c1N(CCC(C)C)CCN(C)C	–	inconclusive: 28.2 µM [inhibitor, partial curve, poor fit]
CCCCOC(=O)c1ccc(NC(=S)NC(=O)c2ccco2)cc1	–	inconclusive: 3.55 µM [inhibitor, full curve, poor fit]
O=[N+]([O-])c1ccccc1/C=C/CN1CCN(Cc2ccc3c(c2)OCO3)CC1	–	inconclusive: 1.26 µM [inhibitor, full curve, poor fit]
O=S(=O)(NCc1ccc(S(=O)(=O)N2CCCCC2)cc1)c1ccc2c(c1)CCC2	–	inconclusive: 44.7 µM [inhibitor, partial curve, poor fit]
CCCCNC(=O)C(=O)Nc1cc2c3c(c1)CCC(=O)N3CCC2	–	inconclusive: 28.2 µM [inhibitor, partial curve, poor fit]
COc1ccc2c(CN3CCCC3)cc(=O)oc2c1	–	inconclusive: 44.7 µM [inhibitor, partial curve, poor fit]
S=C(NCc1ccccc1)Nc1cccc(Cl)c1	–	inconclusive: 56.2 µM [inhibitor, partial curve, poor fit]
COc1ccc(-c2cn(Cc3ccc(C(N)=O)cc3)c(-c3ccc(Cl)nc3)n2)cc1	–	inconclusive: 89.1 µM [inhibitor, partial curve, poor fit]

Look-ups from the list:
Entry of Nn1c(SCC(=O)NCCN2C(=O)CSC2=O)nnc1-c1ccc(OC(F)F)cc1 under activity change, negative = inhibition: inactive: 6.24%
Entry of O=S(=O)(NCc1ccc(S(=O)(=O)N2CCCCC2)cc1)c1ccc2c(c1)CCC2 under Potency: inconclusive: 44.7 µM [inhibitor, partial curve, poor fit]
Entry of COc1cnc(-c2ccccc2)nc1Oc1ccccc1C under Potency: inconclusive: 112 µM [inhibitor, single point]
